Data from PMC7948952, “Structural basis for multifunctional roles of human Ints3 C-terminal domain” (The Journal of Biological Chemistry, 2020).
A weaker result is weaker than the reference pair of the same experiment.

Chains of the proteins cited; added tags and fusions are not shown. A line that says so, or that is headed by a name, gives the form on record, which may keep a tag or linker.
Ints3 C-terminal domain (Ints3-555-976) WT (human), one chain, as listed by the source: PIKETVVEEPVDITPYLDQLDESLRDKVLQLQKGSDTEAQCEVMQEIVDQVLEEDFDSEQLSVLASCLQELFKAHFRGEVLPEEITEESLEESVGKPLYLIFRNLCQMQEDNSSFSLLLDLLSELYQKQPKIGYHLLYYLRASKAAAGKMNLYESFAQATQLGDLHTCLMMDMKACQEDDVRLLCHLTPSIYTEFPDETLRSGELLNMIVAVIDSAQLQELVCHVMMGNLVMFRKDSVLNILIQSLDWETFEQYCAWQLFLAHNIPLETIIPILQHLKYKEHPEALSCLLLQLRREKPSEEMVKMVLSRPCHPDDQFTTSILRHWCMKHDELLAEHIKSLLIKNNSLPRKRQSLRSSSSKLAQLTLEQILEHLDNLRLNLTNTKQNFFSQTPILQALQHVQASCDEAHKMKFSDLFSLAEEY

Test system: Ints3 C-terminal domain (Ints3-555-976) WT (human)
Assay: EMSA
Conditions: shifted fraction rather low at 25 uM protein, tested up to 200 uM; 20 mM Hepes pH 7.4, 100 mM NaCl, 1 mM MgCl2, 1 mg/ml BSA, 2 mM DTT, 5% glycerol; on ice 30 min; 7.5 nM probe; native 5% PAGE in 1X TBE; recombinant protein; residues 555-976; label: 5' 32P; single-stranded DNA

TTTTTTTTTTTTTTTTTTTTTTTTTTTTTT [dT30]: binds more weakly.
